Source: the supplement of paper PMC6411743
± gives the standard deviation of the averaged measurements. This is a selection; strong and weak results do not stand in their true shares.

Chains of the proteins cited; added tags and fusions are not shown. Lines headed by an entry give the natural chain unless they say otherwise; changes in a name come on top.
UniProt Q9NUJ1: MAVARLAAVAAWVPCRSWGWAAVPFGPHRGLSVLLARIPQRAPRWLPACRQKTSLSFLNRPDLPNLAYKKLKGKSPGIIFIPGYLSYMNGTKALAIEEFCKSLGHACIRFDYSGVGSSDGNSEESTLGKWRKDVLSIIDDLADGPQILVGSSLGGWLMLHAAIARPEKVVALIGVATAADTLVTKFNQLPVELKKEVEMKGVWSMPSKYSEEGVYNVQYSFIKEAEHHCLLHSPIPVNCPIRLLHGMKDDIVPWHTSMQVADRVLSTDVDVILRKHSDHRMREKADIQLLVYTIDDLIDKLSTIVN
UniProt Q9NWT1: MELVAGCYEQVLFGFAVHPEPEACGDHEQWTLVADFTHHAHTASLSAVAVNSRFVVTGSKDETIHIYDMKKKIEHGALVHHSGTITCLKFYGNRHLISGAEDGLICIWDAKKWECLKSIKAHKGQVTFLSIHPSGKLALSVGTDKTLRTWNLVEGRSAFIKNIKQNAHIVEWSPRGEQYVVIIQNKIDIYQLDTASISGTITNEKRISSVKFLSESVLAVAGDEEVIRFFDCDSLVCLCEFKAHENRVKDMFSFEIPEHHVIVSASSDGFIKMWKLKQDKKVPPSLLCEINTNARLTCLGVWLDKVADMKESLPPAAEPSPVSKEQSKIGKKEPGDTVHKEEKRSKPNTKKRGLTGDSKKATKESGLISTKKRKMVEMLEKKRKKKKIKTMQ
UniProt Q9NVV4: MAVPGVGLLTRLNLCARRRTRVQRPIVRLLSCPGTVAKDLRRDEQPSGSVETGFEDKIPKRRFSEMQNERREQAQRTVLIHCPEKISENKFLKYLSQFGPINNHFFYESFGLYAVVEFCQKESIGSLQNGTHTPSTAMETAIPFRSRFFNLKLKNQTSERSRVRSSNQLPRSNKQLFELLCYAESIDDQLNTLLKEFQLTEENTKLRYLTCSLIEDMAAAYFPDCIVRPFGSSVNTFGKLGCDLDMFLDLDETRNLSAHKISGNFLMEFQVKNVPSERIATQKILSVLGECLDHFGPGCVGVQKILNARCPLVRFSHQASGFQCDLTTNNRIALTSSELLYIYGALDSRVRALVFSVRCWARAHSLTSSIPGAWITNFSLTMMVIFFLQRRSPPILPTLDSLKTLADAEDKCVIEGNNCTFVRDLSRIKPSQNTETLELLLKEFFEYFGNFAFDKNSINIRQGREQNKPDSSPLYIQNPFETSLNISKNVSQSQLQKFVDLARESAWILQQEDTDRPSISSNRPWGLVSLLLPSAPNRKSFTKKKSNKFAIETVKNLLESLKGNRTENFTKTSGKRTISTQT
UniProt Q9NVA1: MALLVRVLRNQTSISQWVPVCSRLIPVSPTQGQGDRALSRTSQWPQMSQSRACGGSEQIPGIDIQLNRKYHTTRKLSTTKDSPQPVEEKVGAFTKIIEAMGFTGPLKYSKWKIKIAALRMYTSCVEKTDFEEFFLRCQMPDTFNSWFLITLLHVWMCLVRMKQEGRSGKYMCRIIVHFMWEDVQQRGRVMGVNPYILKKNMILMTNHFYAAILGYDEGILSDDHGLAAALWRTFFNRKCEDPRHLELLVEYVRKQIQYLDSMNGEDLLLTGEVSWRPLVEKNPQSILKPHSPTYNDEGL
UniProt Q9NPB8: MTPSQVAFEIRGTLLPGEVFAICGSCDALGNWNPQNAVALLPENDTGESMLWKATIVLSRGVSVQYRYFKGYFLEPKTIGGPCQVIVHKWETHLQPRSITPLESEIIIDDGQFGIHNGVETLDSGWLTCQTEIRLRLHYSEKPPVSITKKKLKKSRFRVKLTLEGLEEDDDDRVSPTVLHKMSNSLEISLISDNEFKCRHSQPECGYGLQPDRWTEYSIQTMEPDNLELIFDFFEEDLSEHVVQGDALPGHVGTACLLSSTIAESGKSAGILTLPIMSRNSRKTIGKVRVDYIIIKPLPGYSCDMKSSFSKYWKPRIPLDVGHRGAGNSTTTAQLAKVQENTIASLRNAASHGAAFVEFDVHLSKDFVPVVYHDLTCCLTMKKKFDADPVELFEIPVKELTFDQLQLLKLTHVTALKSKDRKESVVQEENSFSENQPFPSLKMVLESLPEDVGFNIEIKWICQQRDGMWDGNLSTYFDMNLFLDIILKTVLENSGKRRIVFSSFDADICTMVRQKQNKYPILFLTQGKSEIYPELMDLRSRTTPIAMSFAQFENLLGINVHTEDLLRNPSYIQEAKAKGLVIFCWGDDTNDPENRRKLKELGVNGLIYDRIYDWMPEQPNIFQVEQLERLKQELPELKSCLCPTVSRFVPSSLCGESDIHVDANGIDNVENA
UniProt Q9NPQ8: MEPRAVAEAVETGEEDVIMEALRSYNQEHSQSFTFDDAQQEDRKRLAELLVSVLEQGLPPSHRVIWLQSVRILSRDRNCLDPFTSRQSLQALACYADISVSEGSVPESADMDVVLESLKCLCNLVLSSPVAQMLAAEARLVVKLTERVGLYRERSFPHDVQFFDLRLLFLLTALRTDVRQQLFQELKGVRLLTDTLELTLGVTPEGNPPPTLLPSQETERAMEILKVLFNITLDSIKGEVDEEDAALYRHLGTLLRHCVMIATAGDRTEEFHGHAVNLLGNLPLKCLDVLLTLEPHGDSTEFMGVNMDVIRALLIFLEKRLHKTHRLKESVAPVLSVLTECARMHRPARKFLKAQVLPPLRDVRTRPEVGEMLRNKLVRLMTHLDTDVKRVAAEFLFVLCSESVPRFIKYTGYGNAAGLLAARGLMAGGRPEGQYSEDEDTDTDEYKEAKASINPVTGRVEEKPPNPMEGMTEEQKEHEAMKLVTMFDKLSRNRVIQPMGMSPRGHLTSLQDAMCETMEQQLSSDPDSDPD
UniProt Q9NQX3: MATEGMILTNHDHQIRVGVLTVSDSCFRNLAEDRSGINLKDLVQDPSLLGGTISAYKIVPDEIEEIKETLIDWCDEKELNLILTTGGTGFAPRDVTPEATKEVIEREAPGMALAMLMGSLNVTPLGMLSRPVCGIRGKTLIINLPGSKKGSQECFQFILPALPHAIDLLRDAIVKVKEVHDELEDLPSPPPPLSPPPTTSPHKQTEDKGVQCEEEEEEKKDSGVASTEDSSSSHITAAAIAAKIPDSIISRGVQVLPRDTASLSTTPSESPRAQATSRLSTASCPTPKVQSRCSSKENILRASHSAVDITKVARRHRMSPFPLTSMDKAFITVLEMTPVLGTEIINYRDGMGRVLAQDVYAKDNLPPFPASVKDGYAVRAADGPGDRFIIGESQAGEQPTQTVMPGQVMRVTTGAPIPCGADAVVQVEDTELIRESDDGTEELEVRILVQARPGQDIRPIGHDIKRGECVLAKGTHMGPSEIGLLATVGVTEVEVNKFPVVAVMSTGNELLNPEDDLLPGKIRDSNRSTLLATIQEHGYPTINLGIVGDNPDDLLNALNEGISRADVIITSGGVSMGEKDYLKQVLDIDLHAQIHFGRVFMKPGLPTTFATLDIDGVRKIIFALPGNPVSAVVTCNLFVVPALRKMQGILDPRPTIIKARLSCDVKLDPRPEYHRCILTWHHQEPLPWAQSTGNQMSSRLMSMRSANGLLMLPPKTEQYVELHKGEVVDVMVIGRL
UniProt Q9NY33: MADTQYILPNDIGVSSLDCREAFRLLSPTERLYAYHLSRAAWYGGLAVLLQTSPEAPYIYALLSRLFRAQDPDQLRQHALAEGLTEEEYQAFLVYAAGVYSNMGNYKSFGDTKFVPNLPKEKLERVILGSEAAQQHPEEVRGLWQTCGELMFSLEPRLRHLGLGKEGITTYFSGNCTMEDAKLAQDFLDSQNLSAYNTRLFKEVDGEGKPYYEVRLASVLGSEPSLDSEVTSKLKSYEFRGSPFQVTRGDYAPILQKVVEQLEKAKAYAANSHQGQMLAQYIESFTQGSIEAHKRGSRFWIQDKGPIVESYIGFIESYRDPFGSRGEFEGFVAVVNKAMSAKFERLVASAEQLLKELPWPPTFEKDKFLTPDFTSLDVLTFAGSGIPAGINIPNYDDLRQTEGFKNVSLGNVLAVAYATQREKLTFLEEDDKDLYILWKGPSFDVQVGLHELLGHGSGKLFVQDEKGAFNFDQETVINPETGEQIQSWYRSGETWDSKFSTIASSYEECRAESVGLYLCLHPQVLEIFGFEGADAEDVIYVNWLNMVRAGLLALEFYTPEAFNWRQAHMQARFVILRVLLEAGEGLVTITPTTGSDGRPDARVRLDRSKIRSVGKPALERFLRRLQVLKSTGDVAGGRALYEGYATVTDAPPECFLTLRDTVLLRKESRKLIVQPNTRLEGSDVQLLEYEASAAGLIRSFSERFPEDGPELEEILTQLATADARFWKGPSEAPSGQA
UniProt Q9NS93: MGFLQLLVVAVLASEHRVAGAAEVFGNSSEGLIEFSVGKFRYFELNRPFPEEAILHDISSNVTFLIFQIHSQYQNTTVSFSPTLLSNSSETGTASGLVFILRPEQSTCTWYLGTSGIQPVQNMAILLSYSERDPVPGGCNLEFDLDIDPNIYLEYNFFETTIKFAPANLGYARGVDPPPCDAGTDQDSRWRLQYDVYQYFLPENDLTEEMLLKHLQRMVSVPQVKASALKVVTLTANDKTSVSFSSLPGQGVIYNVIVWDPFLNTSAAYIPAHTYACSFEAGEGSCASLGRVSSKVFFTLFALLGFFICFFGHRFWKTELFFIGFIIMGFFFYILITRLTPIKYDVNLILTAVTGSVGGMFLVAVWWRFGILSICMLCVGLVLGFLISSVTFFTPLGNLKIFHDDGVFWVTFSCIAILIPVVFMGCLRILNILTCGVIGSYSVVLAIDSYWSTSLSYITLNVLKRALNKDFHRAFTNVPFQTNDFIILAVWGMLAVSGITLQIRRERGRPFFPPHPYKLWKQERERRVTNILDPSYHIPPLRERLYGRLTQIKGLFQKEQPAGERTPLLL
UniProt Q9NV70: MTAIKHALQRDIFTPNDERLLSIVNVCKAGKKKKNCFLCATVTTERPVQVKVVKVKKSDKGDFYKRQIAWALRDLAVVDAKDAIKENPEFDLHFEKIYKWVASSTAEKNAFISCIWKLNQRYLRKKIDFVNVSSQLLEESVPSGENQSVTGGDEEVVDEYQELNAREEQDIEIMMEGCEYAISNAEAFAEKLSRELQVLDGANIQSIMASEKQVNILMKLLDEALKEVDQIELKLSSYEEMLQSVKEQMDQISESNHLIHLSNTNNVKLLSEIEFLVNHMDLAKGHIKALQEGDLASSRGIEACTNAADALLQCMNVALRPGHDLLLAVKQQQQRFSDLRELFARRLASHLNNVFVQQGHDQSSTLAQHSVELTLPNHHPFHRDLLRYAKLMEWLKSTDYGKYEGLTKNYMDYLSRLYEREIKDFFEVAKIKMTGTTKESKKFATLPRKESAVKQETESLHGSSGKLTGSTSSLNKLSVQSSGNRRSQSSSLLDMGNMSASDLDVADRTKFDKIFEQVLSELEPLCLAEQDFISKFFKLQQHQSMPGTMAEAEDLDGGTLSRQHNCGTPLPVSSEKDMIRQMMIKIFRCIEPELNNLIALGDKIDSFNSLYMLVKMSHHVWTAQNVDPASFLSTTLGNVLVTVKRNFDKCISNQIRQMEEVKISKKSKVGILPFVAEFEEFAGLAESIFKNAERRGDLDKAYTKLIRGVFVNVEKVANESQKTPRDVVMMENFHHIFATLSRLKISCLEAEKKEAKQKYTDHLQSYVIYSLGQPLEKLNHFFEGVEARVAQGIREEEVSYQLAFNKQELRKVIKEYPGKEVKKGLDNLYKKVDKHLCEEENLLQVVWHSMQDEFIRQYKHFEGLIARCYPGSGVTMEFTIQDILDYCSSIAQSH
UniProt Q9P1F3: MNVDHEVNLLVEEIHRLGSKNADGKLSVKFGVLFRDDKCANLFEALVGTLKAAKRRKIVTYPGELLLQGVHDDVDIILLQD
UniProt Q9P215: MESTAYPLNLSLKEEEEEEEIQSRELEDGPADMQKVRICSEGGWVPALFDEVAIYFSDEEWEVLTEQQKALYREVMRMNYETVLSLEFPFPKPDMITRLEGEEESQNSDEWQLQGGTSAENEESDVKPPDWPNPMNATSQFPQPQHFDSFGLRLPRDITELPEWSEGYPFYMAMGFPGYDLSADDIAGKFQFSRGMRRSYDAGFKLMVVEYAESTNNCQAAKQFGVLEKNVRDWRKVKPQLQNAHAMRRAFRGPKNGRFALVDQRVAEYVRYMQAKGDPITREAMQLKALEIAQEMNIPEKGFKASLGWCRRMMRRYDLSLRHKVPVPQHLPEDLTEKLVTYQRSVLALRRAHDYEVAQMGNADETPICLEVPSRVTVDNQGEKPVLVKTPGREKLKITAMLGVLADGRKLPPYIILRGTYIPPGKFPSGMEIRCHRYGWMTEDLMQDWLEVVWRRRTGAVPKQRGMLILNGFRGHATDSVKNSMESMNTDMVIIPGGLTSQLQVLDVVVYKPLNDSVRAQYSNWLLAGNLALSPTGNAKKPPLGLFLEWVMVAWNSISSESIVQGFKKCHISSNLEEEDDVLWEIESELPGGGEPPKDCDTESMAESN
UniProt Q9NS69: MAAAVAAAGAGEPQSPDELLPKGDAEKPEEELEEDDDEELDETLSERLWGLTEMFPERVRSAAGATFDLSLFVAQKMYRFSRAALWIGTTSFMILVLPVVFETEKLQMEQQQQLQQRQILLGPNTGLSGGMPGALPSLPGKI

Compound: Nc1ncnc2c1ncn2[C@@H]1O[C@H](COP(=O)(O)OP(=O)(O)OP(=O)(O)O)[C@@H](O)[C@H]1O [adenosine triphosphate]
Experiment: NP40-soluble protein abundance relative to vehicle (solubility fold change) (ratio); higher = more soluble protein in presence of ATP
Outline: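 Jurkat crude lysate prepared with a Dounce homogeniser was treated at eight concentrations spanning 0.1 to 10 mM, 10 min at room temperature then 3 min at 37 °C. Solubilisation with 0.8% NP40 and benzonase and ultracentrifugation preceded TMT labelling of the supernatant for LC-MS/MS. Fold change against the detergent-processed vehicle was determined per replicate from vsn-normalised intensities, across three independent experiments.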

Target	NP40-soluble protein abundance (concentration: 1mM)	NP40-soluble protein abundance (concentration: 2mM)	NP40-soluble protein abundance (concentration: 4mM)	NP40-soluble protein abundance (concentration: 6mM)	NP40-soluble protein abundance (concentration: 8mM)	NP40-soluble protein abundance (concentration: 10mM)
OSGEP (UniProt Q9NPF4)	0.961 ± 0.039	0.967 ± 0.041	0.956 ± 0.017	0.931 ± 0.043	0.934 ± 0.027	0.928 ± 0.025
UniProt Q9NV56	0.972 ± 0.029	1 ± 0.038	1 ± 0.045	1.09 ± 0.067	1.01 ± 0.036	1.01 ± 0.021
USE1 (UniProt Q9NZ43)	0.95 ± 0.051	0.984 ± 0.014	0.986 ± 0.039	1.03 ± 0.08	0.987 ± 0.039	0.973 ± 0.027
ABHD10 (UniProt Q9NUJ1)	1.03 ± 0.13	1.01 ± 0.084	0.972 ± 0.053	0.952 ± 0.083	0.978 ± 0.044	0.985 ± 0.054
UniProt Q9NSY1	1.18 ± 0.032	1.29 ± 0.032	1.35 ± 0.082	1.44 ± 0.08	1.44 ± 0.081	1.55 ± 0.093
UniProt Q9NXR5 and related entries	0.971 ± 0.049	0.929 ± 0.088	1.01 ± 0.11	1.07 ± 0.12	0.931 ± 0.019	0.995 ± 0.064
PAK1IP1 (UniProt Q9NWT1)	1.23 ± 0.18	1.17 ± 0.072	1.2 ± 0.058	1.31 ± 0.045	1.37 ± 0.053	1.58 ± 0.071
SNRK (UniProt Q9NRH2)	1.08 ± 0.017	1 ± 0.085	1.01 ± 0.09	0.99 ± 0.038	0.969 ± 0.068	0.985 ± 0.035
MTPAP (UniProt Q9NVV4)	1.15 ± 0.014	1.28 ± 0.048	1.37 ± 0.029	1.52 ± 0.041	1.53 ± 0.018	1.57 ± 0.091
LANCL2 (UniProt Q9NS86)	0.985 ± 0.074	0.975 ± 0.047	0.986 ± 0.027	0.93 ± 0.062	0.977 ± 0.052	1.015 ± 0.0027
UniProt Q9NSB8 and related entries	0.949 ± 0.073	1.1 ± 0.017	1.04 ± 0.088	1.09 ± 0.088	1.07 ± 0.13	1.11 ± 0.059
UniProt Q9NPG3 and related entries	1.12 ± 0.13	1.07 ± 0.11	1.11 ± 0.066	1.17 ± 0.11	1.12 ± 0.15	1.21 ± 0.077
CNOT2 (UniProt Q9NZN8)	1.17 ± 0.018	1.18 ± 0.023	1.23 ± 0.043	1.32 ± 0.092	1.28 ± 0.035	1.32 ± 0.026
UniProt Q9NVA1 and related entries	0.956 ± 0.099	0.97 ± 0.13	0.978 ± 0.088	0.949 ± 0.12	0.972 ± 0.052	0.959 ± 0.066
RLIM (UniProt Q9NVW2)	1.07 ± 0.17	1.04 ± 0.19	1.12 ± 0.16	1.12 ± 0.25	1.06 ± 0.23	1.06 ± 0.17
MPP6 (UniProt Q9NZW5)	1.03 ± 0.058	1.01 ± 0.03	1.01 ± 0.032	0.983 ± 0.072	1.01 ± 0.044	0.994 ± 0.04
FAM120C (UniProt Q9NX05)	1.02 ± 0.086	1.02 ± 0.066	1.12 ± 0.12	1.17 ± 0.14	1.31 ± 0.11	1.35 ± 0.097
HINT3 (UniProt Q9NQE9)	0.97 ± 0.064	1 ± 0.073	0.982 ± 0.059	0.962 ± 0.061	1 ± 0.097	0.988 ± 0.095
GPCPD1 (UniProt Q9NPB8)	1.04 ± 0.068	1.01 ± 0.049	1.08 ± 0.063	1.08 ± 0.12	0.951 ± 0.042	0.982 ± 0.068
MDN1 (UniProt Q9NU22)	0.859 ± 0.025	0.856 ± 0.018	0.895 ± 0.022	0.885 ± 0.048	0.968 ± 0.03	0.975 ± 0.036

Looked up above.
CNOT2 (UniProt Q9NZN8) | NP40-soluble protein abundance (concentration: 2mM): 1.18 ± 0.023
UniProt Q9NSB8 and related entries | NP40-soluble protein abundance (concentration: 1mM): 0.949 ± 0.073
UniProt Q9NXR5 and related entries | NP40-soluble protein abundance (concentration: 4mM): 1.01 ± 0.11

(next part)

Target	NP40-soluble protein abundance (concentration: 1mM)	NP40-soluble protein abundance (concentration: 2mM)	NP40-soluble protein abundance (concentration: 4mM)	NP40-soluble protein abundance (concentration: 6mM)	NP40-soluble protein abundance (concentration: 8mM)	NP40-soluble protein abundance (concentration: 10mM)
EXOSC4 (UniProt Q9NPD3)	1.12 ± 0.14	1.12 ± 0.08	1.16 ± 0.08	1.12 ± 0.097	1.23 ± 0.086	1.22 ± 0.036
UniProt Q9NPA8 and related entries	0.951 ± 0.19	0.983 ± 0.21	0.909 ± 0.2	0.998 ± 0.21	0.865 ± 0.11	0.915 ± 0.17
UniProt Q9NZQ3 and related entries	1.03 ± 0.031	1.06 ± 0.022	1.03 ± 0.065	1.02 ± 0.084	1.03 ± 0.033	1.06 ± 0.027
UniProt Q9NPQ8 and related entries	0.95 ± 0.025	0.973 ± 0.016	0.974 ± 0.025	0.947 ± 0.03	0.914 ± 0.024	0.969 ± 0.011
AASDHPPT (UniProt Q9NRN7)	0.993 ± 0.13	0.948 ± 0.081	0.925 ± 0.068	0.917 ± 0.17	0.964 ± 0.083	0.945 ± 0.084
GEMIN8 (UniProt Q9NWZ8)	0.978 ± 0.12	0.875 ± 0.14	0.885 ± 0.15	0.9 ± 0.28	0.965 ± 0.2	0.935 ± 0.17
UniProt Q9NQX3 and related entries	0.979 ± 0.018	0.9653 ± 0.0058	0.9589 ± 0.0084	0.972 ± 0.015	0.944 ± 0.015	0.953 ± 0.013
CUTC (UniProt Q9NTM9)	0.967 ± 0.12	0.956 ± 0.086	0.952 ± 0.053	0.926 ± 0.12	0.952 ± 0.052	0.939 ± 0.05
THUMPD1 (UniProt Q9NXG2)	0.934 ± 0.038	0.955 ± 0.012	0.952 ± 0.026	0.983 ± 0.013	0.96 ± 0.013	0.931 ± 0.079
PHPT1 (UniProt Q9NRX4)	1.05 ± 0.087	0.9894 ± 0.0074	0.98 ± 0.027	0.999 ± 0.045	0.968 ± 0.037	0.949 ± 0.029
MRPL39 (UniProt Q9NYK5)	1.02 ± 0.021	0.949 ± 0.075	0.922 ± 0.1	0.901 ± 0.2	0.918 ± 0.17	0.882 ± 0.15
DPP3 (UniProt Q9NY33)	0.999 ± 0.063	0.971 ± 0.067	0.932 ± 0.046	0.946 ± 0.12	0.956 ± 0.032	0.938 ± 0.056
TM7SF3 (UniProt Q9NS93)	0.96 ± 0.016	0.953 ± 0.023	0.93 ± 0.053	0.966 ± 0.054	0.934 ± 0.036	0.924 ± 0.056
UniProt Q9NV70 and related entries	1.08 ± 0.095	1.03 ± 0.04	1.03 ± 0.041	1.02 ± 0.048	1.05 ± 0.051	1.02 ± 0.052
SNX15 (UniProt Q9NRS6)	0.983 ± 0.044	0.975 ± 0.041	1 ± 0.05	0.919 ± 0.068	0.9726 ± 0.0068	0.956 ± 0.012
UniProt Q9NUQ9 and related entries	0.948 ± 0.01	0.986 ± 0.044	0.937 ± 0.033	0.984 ± 0.033	0.932 ± 0.068	0.925 ± 0.08
UniProt Q9NVJ2	0.945 ± 0.15	0.963 ± 0.16	0.93 ± 0.091	0.891 ± 0.069	0.893 ± 0.056	0.914 ± 0.057
ABCB10 (UniProt Q9NRK6)	1 ± 0.076	1.02 ± 0.072	1 ± 0.037	0.945 ± 0.072	0.987 ± 0.036	1 ± 0.063
UniProt Q9NZM5	0.916 ± 0.11	0.927 ± 0.071	0.96 ± 0.041	0.918 ± 0.03	0.849 ± 0.027	0.832 ± 0.034
UniProt Q9P1F3	0.966 ± 0.18	1.04 ± 0.096	0.962 ± 0.21	0.997 ± 0.12	0.806 ± 0.15	0.835 ± 0.055

Target	NP40-soluble protein abundance (concentration: 1mM)	NP40-soluble protein abundance (concentration: 2mM)	NP40-soluble protein abundance (concentration: 4mM)	NP40-soluble protein abundance (concentration: 6mM)	NP40-soluble protein abundance (concentration: 8mM)	NP40-soluble protein abundance (concentration: 10mM)
TRNAU1AP (UniProt Q9NX07)	0.968 ± 0.059	0.982 ± 0.033	0.951 ± 0.031	0.971 ± 0.034	0.918 ± 0.03	0.959 ± 0.045
NHP2 (UniProt Q9NX24)	1.05 ± 0.086	1.1 ± 0.12	1.2 ± 0.12	1.35 ± 0.13	1.5 ± 0.094	1.65 ± 0.16
VPS18 (UniProt Q9P253)	1.06 ± 0.056	1.03 ± 0.02	1.02 ± 0.051	1 ± 0.049	1.06 ± 0.048	1.01 ± 0.018
GIMAP4 (UniProt Q9NUV9)	1 ± 0.039	0.975 ± 0.059	0.944 ± 0.065	0.992 ± 0.09	0.967 ± 0.087	0.954 ± 0.074
TMEM9B (UniProt Q9NQ34)	0.946 ± 0.055	0.928 ± 0.07	0.942 ± 0.014	0.944 ± 0.088	0.928 ± 0.0098	0.89 ± 0.043
UTP3 (UniProt Q9NQZ2)	0.927 ± 0.05	0.941 ± 0.011	0.931 ± 0.022	0.941 ± 0.04	0.911 ± 0.015	0.922 ± 0.027
UniProt Q9P0I2	1.03 ± 0.044	1.05 ± 0.041	1.04 ± 0.035	1.07 ± 0.1	1.02 ± 0.066	1.01 ± 0.037
UniProt Q9NVH1 and related entries	1.01 ± 0.056	1.01 ± 0.058	0.955 ± 0.091	1 ± 0.063	1.02 ± 0.035	1.01 ± 0.039
RAD18 (UniProt Q9NS91)	1.14 ± 0.028	1.14 ± 0.025	1.18 ± 0.016	1.18 ± 0.021	1.17 ± 0.0083	1.21 ± 0.024
ALKBH4 (UniProt Q9NXW9)	1.1 ± 0.17	1.06 ± 0.069	1.01 ± 0.071	1.04 ± 0.078	1.05 ± 0.066	1.03 ± 0.08
INTS10 (UniProt Q9NVR2)	1.1 ± 0.087	1.03 ± 0.046	1.08 ± 0.028	0.9775 ± 0.0049	1.07 ± 0.053	1.11 ± 0.067
POGK (UniProt Q9P215)	0.96 ± 0.16	0.981 ± 0.065	1.02 ± 0.0078	0.948 ± 0.054	0.947 ± 0.17	1.02 ± 0.12
UniProt Q9NR19 and related entries	0.931 ± 0.01	0.941 ± 0.065	0.949 ± 0.06	0.901 ± 0.067	0.943 ± 0.091	0.917 ± 0.031
UniProt Q9NW15-5|C9J670 and related entries	0.982 ± 0.11	1.05 ± 0.14	0.911 ± 0.07	0.958 ± 0.14	1.02 ± 0.17	0.939 ± 0.074
UniProt Q9NYV4 and related entries	1.28 ± 0.075	1.35 ± 0.072	1.44 ± 0.085	1.56 ± 0.14	1.5 ± 0.11	1.56 ± 0.11
UniProt Q9NX14 and related entries	0.906 ± 0.096	0.894 ± 0.094	0.87 ± 0.022	0.888 ± 0.15	0.893 ± 0.022	0.826 ± 0.084
UniProt Q9NVU7 and related entries	1.02 ± 0.012	1.05 ± 0.02	1.06 ± 0.03	1.06 ± 0.025	1.08 ± 0.014	1.15 ± 0.031
TOMM22 (UniProt Q9NS69)	0.946 ± 0.085	0.948 ± 0.048	0.9802 ± 0.005	1 ± 0.12	0.941 ± 0.01	0.858 ± 0.11
UniProt Q9P032	0.955 ± 0.053	0.954 ± 0.075	0.938 ± 0.073	0.944 ± 0.062	0.92 ± 0.037	0.911 ± 0.095
TMEM160 (UniProt Q9NX00)	1.12 ± 0.067	1.09 ± 0.14	1.14 ± 0.19	1.14 ± 0.12	1.2 ± 0.15	1.2 ± 0.065
